Laboratory results published in PubChem BioAssay AID504834 (National Center for Advancing Translational Sciences (NCATS), 2011).
In all, about 320,000 compounds went through this assay and about 22,000 (6.9%) were called active. Inconclusive means that the source gave no clear call. Such entries were picked first, then a sample of the others. The call rests on the fitted dose curve; in most records, active means well fitted inhibition curve with a large enough effect; inconclusive means small, poorly fitted or top-dose-only effect, or another doubt; inactive means no such curve, though single readings can be large or run the other way. Potencies beside an inconclusive call are fits to weak or partial responses and may not hold up.

Experiment: Primary qHTS for delayed death inhibitors of the malarial parasite plastid, 96 hour incubation
Conditions: P. falciparum luciferase reporter growth; series mostly up to 28.7 µM; activity change, negative = inhibition: at the top concentration
How it was run: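 Infected RBCs, 2% Hct / 0.05% parasitemia final; luciferase-reporter P. falciparum; cpd 96 h, 37 C, 5% CO2; luciferase detection reagent; luminescence.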
On the % scale 0 is the no-effect control and ±100 the full control effect; potency means the concentration at half of the fitted maximal effect.

Row | SMILES | activity change, negative = inhibition | Potency
1 | O=C(Nc1ccc2c(c1)OCO2)C1CC(=O)N(c2ccccc2)C1 (centres undefined) | inactive: 3.46% | –
2 | Cc1ccc(S(=O)(=O)N(C)C)cc1NC(=O)C(C)Sc1ccccc1 (centres undefined) | – | inconclusive: 18.5 µM [inhibitor, single point]
3 | O=C(CN(C(=O)CCC(=O)Nc1ccccn1)c1ccc2c(c1)OCO2)NCc1ccc(F)cc1 | inactive: 3.84% | –
4 | CCn1c(SCC(=O)N2CCCC2)nnc1-c1ccc(S(=O)(=O)N2CCCCCC2)cc1 | – | inconclusive: 10.4 µM [inhibitor, partial curve, poor fit]
5 | Cc1ccc(NC(=O)[C@@H]2CCC(=O)N2C2OC(=O)c3ccccc32)cc1Cl (some centres undefined) | – | inconclusive: 18.5 µM [inhibitor, partial curve, poor fit]
6 | O=C(O)CCn1cc(/C=C\C(=O)c2ccc(Cl)cc2)c(-c2cccc(Br)c2)n1 | – | inconclusive: 18.5 µM [inhibitor, single point]
7 | O=C(Nc1ccncc1)c1ccc(NS(=O)(=O)c2cccc(F)c2)cc1 | – | inconclusive: 13.1 µM [inhibitor, partial curve]
8 | CCC(C(=O)NCCc1ccc(OC)c(OC)c1)n1nc(C)n2c(cc3occc32)c1=O (centres undefined) | – | inconclusive: 3.7 µM [inhibitor, partial curve]
9 | CC(C)[C@@H](C(=O)N1CCCC1)N1C(=O)N2CCc3c([nH]c4ccccc34)[C@@]2(C)C1=O | – | active: 10.4 µM
10 | CCC(=O)N(Cc1cc2cc(OC)ccc2[nH]c1=O)c1ccc(C)cc1C | – | inconclusive: 11.7 µM [inhibitor, single point]
11 | CCOC(=O)c1nn(-c2ccc(F)cc2)c2nc(-c3ccccc3)c(C#N)c(=O)n12 | – | inconclusive: 10.4 µM [inhibitor, single point]
12 | C/C(=N\NC(=O)c1cccc(F)c1)c1ccc(Br)s1 | – | active: 3.7 µM
13 | O=C(Cc1ccsc1)N1CCN(S(=O)(=O)c2cc(C(F)(F)F)cc(C(F)(F)F)c2)CC1 | inactive: -43.5% | –
14 | Cc1ccccc1NC(=S)Nc1cccc2cnccc12 | – | active: 9.28 µM
15 | C=CCn1c(COc2ccc(F)cc2)nnc1SCC(=O)NC1CCS(=O)(=O)C1 (centres undefined) | inactive: 14% | –
16 | Cc1ccc(C)c(N(CC(=O)N2CCCCCC2)S(C)(=O)=O)c1 | – | inconclusive: 10.4 µM [inhibitor, partial curve]
17 | CCCC[C@H]1COCCS(=O)(=O)N1Cc1ccc(Br)cc1 | – | inconclusive: 18.5 µM [inhibitor, single point]
18 | CC(=O)Nc1ccc(NC(=O)CSc2ccc3nnc(-c4ccccn4)n3n2)cc1 | inactive: 0.417% | –
19 | CCNC(=O)COc1ccc(/C=N/NC(=O)c2cccnc2)cc1OC | inactive: -15.9% [at 5.75 µM] | –

Part of the list above in order of formula weight, low to high:
Row | SMILES | activity change, negative = inhibition | Potency
16 | Cc1ccc(C)c(N(CC(=O)N2CCCCCC2)S(C)(=O)=O)c1 | – | inconclusive: 10.4 µM [inhibitor, partial curve]
5 | Cc1ccc(NC(=O)[C@@H]2CCC(=O)N2C2OC(=O)c3ccccc32)cc1Cl (some centres undefined) | – | inconclusive: 18.5 µM [inhibitor, partial curve, poor fit]
4 | CCn1c(SCC(=O)N2CCCC2)nnc1-c1ccc(S(=O)(=O)N2CCCCCC2)cc1 | – | inconclusive: 10.4 µM [inhibitor, partial curve, poor fit]
